Laboratory results taken from the supplement of paper PMC8728848.
The other results are listed elsewhere or left out.

How the values were obtained:
Test in all cases: glycan array binding signal (z-score within array); higher = stronger binding
Settings in all cases: glycan notation: IUPAC condensed, linker removed
[1] = target: Fuc(a1-2)[Gal(a1-3)]Gal(b1-4)[Fuc(a1-3)]GlcNAc(b1-3)GalNAc
How it was run: (§1)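 Arrays were curated from the Consortium for Functional Glycomics database, 3228 in total, and kept only where the protein sequence was available. Binding is expressed as a within-array Z-score. This score was averaged across arrays of the same protein sequence at different concentrations or buffers and across linkers, and negative values can be read as non-binding.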

[2] = target: Fuc(a1-2)[Gal(a1-4)]Gal(b1-4)GlcNAc
How it was run: as §1

[3] = target: Fuc(a1-2)[GalNAc(a1-3)]Gal
How it was run: as §1

[4] = target: Fuc(a1-2)[GalNAc(a1-3)]Gal(b1-3)GalNAc(a1-3)[Fuc(a1-2)]Gal(b1-4)GlcNAc
How it was run: as §1

[5] = target: Fuc(a1-2)[GalNAc(a1-3)]Gal(b1-3)GalNAc(b1-3)Gal(a1-4)Gal(b1-4)Glc
How it was run: as §1

[6] = target: Fuc(a1-2)[GalNAc(a1-3)]Gal(b1-3)GlcNAc
How it was run: as §1

[7] = target: Fuc(a1-2)[GalNAc(a1-3)]Gal(b1-3)GlcNAc(b1-2)Man(a1-3)[Fuc(a1-2)[GalNAc(a1-3)]Gal(b1-3)GlcNAc(b1-2)Man(a1-6)]Man(b1-4)GlcNAc(b1-4)GlcNAc
How it was run: as §1

[8] = target: Fuc(a1-2)[GalNAc(a1-3)]Gal(b1-3)GlcNAc(b1-2)Man(a1-3)[Fuc(a1-2)[GalNAc(a1-3)]Gal(b1-3)GlcNAc(b1-2)Man(a1-6)]Man(b1-4)GlcNAc(b1-4)[Fuc(a1-6)]GlcNAc
How it was run: as §1

[9] = target: Fuc(a1-2)[GalNAc(a1-3)]Gal(b1-3)GlcNAc(b1-3)GalNAc
How it was run: as §1

[10] = target: Fuc(a1-2)[GalNAc(a1-3)]Gal(b1-3)GlcNAc(b1-6)GalNAc
How it was run: as §1

[11] = target: Fuc(a1-2)[GalNAc(a1-3)]Gal(b1-4)Glc
How it was run: as §1

[12] = target: Fuc(a1-2)[GalNAc(a1-3)]Gal(b1-4)GlcNAc
How it was run: as §1

[13] = target: Fuc(a1-2)[GalNAc(a1-3)]Gal(b1-4)GlcNAc(b1-2)Man
How it was run: as §1

[14] = target: Fuc(a1-2)[GalNAc(a1-3)]Gal(b1-4)GlcNAc(b1-2)Man(a1-3)[Fuc(a1-2)[GalNAc(a1-3)]Gal(b1-4)GlcNAc(b1-2)Man(a1-6)]Man(b1-4)GlcNAc(b1-4)GlcNAc
How it was run: as §1

[15] = target: Fuc(a1-2)[GalNAc(a1-3)]Gal(b1-4)GlcNAc(b1-2)Man(a1-3)[Fuc(a1-2)[GalNAc(a1-3)]Gal(b1-4)GlcNAc(b1-2)Man(a1-6)]Man(b1-4)GlcNAc(b1-4)[Fuc(a1-6)]GlcNAc
How it was run: as §1

[16] = target: Fuc(a1-2)[GalNAc(a1-3)]Gal(b1-4)GlcNAc(b1-3)Gal(b1-4)GlcNAc
How it was run: as §1

[17] = target: Fuc(a1-2)[GalNAc(a1-3)]Gal(b1-4)GlcNAc(b1-3)Gal(b1-4)GlcNAc(b1-3)Gal(b1-4)GlcNAc
How it was run: as §1

[18] = target: Fuc(a1-2)[GalNAc(a1-3)]Gal(b1-4)GlcNAc(b1-3)GalNAc
How it was run: as §1

[19] = target: Fuc(a1-2)[GalNAc(a1-3)]Gal(b1-4)GlcNAc(b1-3)[Fuc(a1-2)[GalNAc(a1-3)]Gal(b1-4)GlcNAc(b1-6)]GalNAc
How it was run: as §1

[20] = target: Fuc(a1-2)[GalNAc(a1-3)]Gal(b1-4)GlcNAc(b1-6)GalNAc
How it was run: as §1

[21] = target: Fuc(a1-2)[GalNAc(a1-3)]Gal(b1-4)[Fuc(a1-3)]GlcNAc
How it was run: as §1

[22] = target: Fuc(a1-2)[GalNAc(a1-3)]Gal(b1-4)[Fuc(a1-3)]GlcNAc(b1-3)GalNAc
How it was run: as §1

[23] = target: Fuc(a1-2)[GalNAc(a1-4)]Gal(b1-4)GlcNAc
How it was run: as §1

[24] = target: Fuc(a1-2)[GalNAc(b1-3)]Gal
How it was run: as §1

[25] = target: Fuc(a1-3)GlcNAc
How it was run: as §1

[26] = target: Fuc(a1-3)[Gal(b1-4)]Glc6S
How it was run: as §1

[27] = target: Fuc(a1-3)[Gal(b1-4)]GlcNAc
How it was run: as §1

[28] = target: Fuc(a1-3)[Gal(b1-4)]GlcNAc(b1-2)Man
How it was run: as §1

[29] = target: Fuc(a1-3)[Gal(b1-4)]GlcNAc(b1-2)Man(a1-3)[Fuc(a1-3)[Gal(b1-4)]GlcNAc(b1-2)Man(a1-6)]Man(b1-4)GlcNAc(b1-4)GlcNAc
How it was run: as §1

[30] = target: Fuc(a1-3)[Gal(b1-4)]GlcNAc(b1-2)Man(a1-3)[Fuc(a1-3)[Gal(b1-4)]GlcNAc(b1-2)Man(a1-6)]Man(b1-4)GlcNAc(b1-4)[Fuc(a1-6)]GlcNAc
How it was run: as §1

[31] = target: Fuc(a1-3)[Gal(b1-4)]GlcNAc(b1-3)Gal(b1-3)[Fuc(a1-4)]GlcNAc
How it was run: as §1

[32] = target: Fuc(a1-3)[Gal(b1-4)]GlcNAc(b1-3)Gal(b1-4)[Fuc(a1-3)]GlcNAc
How it was run: as §1

[33] = target: Fuc(a1-3)[Gal(b1-4)]GlcNAc(b1-3)Gal(b1-4)[Fuc(a1-3)]GlcNAc(b1-3)Gal(b1-4)[Fuc(a1-3)]GlcNAc
How it was run: as §1

[34] = target: Fuc(a1-3)[Gal(b1-4)]GlcNAc(b1-3)GalNAc
How it was run: as §1

[35] = target: Fuc(a1-3)[Gal(b1-4)]GlcNAc(b1-6)GalNAc
How it was run: as §1

[36] = target: Fuc(a1-3)[Gal(b1-4)]GlcNAc(b1-6)[Gal(b1-3)GlcNAc(b1-3)]Gal(b1-4)Glc
How it was run: as §1

[37] = target: Fuc(a1-3)[Gal(b1-4)]GlcNAc6S
How it was run: as §1

[38] = target: Fuc(a1-3)[Gal3S(b1-4)]Glc
How it was run: as §1

B1: Epa19 (Candida glabrata) (protein)
chain: MGSSHHHHHHSSGLVPRGSHMASSKDPTRFPIGCSPQVLKTQPGLAVKLYSYGHPVPGCSYITYQYPDFPRSGYKKERKLADITGVNGKIDIDLKPNDPCRVLTGHLPSNYNYPDTLTYTNFTMILYGYFQPKVTGYHTFNLEADDLLFMNLGAGNAFDCCKAESTLDNFGNYQSYSLWGSDYAKANITVFLVSGVYYPIRLFYVNRDNNAVIDFSFTTEFDKEKVHDFTSYFFSASDGEQCPGSV
[1]
  glycan array binding signal (z-score): 0.292
[2]
  glycan array binding signal (z-score): -0.041
[3]
  glycan array binding signal (z-score): -0.144
[4]
  glycan array binding signal (z-score): -0.629
[5]
  glycan array binding signal (z-score): 0.131
[6]
  glycan array binding signal (z-score): 0.377
[7]
  glycan array binding signal (z-score): -0.369
[8]
  glycan array binding signal (z-score): 0.235
[9]
  glycan array binding signal (z-score): 2.07
[10]
  glycan array binding signal (z-score): -0.483
[11]
  glycan array binding signal (z-score): -0.248
[12]
  glycan array binding signal (z-score): -0.384
[13]
  glycan array binding signal (z-score): -0.315
[14]
  glycan array binding signal (z-score): 1.59
[15]
  glycan array binding signal (z-score): 0.118
[16]
  glycan array binding signal (z-score): -0.361
[17]
  glycan array binding signal (z-score): 0.872
[18]
  glycan array binding signal (z-score): -0.647
[19]
  glycan array binding signal (z-score): -0.445
[20]
  glycan array binding signal (z-score): 0.209
[21]
  glycan array binding signal (z-score): -0.301
[22]
  glycan array binding signal (z-score): 1.08
[23]
  glycan array binding signal (z-score): 1.04
[24]
  glycan array binding signal (z-score): 0.438
[25]
  glycan array binding signal (z-score): -0.754
[26]
  glycan array binding signal (z-score): 0.74
[27]
  glycan array binding signal (z-score): -0.519
[28]
  glycan array binding signal (z-score): -0.217
[29]
  glycan array binding signal (z-score): -0.077
[30]
  glycan array binding signal (z-score): 0.588
[31]
  glycan array binding signal (z-score): -0.329
[32]
  glycan array binding signal (z-score): -0.007
[33]
  glycan array binding signal (z-score): -0.773
[34]
  glycan array binding signal (z-score): 0.591
[35]
  glycan array binding signal (z-score): 1.03
[36]
  glycan array binding signal (z-score): -0.642
[37]
  glycan array binding signal (z-score): 0.42
[38]
  glycan array binding signal (z-score): 0.684
